Our source for the binding values is doi:10.1101/2024.05.31.595485.

Amino acid sequences for entries named in this document (tags omitted).
UniProt P70372: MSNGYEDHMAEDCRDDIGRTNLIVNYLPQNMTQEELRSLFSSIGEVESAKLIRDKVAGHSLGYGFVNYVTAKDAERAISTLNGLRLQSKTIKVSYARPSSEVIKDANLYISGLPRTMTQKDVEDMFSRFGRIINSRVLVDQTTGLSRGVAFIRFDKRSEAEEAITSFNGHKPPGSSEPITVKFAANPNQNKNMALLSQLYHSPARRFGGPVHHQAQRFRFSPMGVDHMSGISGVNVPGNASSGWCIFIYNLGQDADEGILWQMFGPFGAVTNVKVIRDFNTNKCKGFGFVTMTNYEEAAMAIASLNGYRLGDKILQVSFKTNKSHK
UniProt Q60668: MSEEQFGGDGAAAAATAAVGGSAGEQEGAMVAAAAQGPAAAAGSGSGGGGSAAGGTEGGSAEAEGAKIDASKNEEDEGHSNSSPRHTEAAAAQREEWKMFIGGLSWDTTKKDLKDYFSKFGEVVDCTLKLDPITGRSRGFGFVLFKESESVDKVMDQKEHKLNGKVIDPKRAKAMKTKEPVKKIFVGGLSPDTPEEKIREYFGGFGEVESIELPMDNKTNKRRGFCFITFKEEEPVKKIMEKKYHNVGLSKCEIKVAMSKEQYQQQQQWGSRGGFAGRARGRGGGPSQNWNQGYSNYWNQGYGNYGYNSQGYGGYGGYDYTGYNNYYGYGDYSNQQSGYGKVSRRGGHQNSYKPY
UniProt Q5SF07: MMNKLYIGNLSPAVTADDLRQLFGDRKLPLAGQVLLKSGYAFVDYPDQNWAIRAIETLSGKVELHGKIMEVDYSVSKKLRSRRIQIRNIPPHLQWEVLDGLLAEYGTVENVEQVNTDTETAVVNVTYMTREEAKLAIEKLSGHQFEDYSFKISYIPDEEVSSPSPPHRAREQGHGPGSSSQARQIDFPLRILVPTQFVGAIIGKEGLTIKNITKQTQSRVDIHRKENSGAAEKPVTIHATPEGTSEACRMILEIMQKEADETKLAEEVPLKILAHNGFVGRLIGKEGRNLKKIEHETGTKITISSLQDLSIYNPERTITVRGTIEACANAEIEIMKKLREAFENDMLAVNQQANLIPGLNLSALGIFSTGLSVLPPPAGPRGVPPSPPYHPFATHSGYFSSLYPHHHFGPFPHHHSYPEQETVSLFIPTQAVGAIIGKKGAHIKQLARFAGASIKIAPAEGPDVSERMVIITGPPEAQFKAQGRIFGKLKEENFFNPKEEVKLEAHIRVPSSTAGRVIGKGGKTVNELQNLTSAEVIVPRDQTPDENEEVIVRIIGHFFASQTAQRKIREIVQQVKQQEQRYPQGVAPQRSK
UniProt Q9CPN8: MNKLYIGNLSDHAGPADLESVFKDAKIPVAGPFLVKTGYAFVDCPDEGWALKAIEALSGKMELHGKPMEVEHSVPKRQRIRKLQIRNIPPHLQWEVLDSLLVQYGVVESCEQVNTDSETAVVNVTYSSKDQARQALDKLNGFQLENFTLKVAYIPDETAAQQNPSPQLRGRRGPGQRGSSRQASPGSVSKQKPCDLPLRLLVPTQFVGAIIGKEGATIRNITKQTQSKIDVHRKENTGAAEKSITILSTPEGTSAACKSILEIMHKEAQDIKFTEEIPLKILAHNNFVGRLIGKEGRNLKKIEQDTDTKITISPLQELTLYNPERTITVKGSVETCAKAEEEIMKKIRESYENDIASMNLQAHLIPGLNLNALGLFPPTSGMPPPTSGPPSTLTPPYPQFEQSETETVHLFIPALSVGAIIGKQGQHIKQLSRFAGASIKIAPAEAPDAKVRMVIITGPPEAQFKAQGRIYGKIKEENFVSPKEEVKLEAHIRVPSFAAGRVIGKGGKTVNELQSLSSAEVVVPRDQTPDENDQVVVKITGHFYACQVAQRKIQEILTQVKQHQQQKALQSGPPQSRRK
UniProt Q9D0R8: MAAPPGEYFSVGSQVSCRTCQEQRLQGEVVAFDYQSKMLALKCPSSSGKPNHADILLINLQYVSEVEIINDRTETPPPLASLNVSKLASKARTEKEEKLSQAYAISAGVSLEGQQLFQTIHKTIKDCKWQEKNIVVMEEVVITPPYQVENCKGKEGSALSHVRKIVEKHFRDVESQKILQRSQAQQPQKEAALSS
UniProt P05213: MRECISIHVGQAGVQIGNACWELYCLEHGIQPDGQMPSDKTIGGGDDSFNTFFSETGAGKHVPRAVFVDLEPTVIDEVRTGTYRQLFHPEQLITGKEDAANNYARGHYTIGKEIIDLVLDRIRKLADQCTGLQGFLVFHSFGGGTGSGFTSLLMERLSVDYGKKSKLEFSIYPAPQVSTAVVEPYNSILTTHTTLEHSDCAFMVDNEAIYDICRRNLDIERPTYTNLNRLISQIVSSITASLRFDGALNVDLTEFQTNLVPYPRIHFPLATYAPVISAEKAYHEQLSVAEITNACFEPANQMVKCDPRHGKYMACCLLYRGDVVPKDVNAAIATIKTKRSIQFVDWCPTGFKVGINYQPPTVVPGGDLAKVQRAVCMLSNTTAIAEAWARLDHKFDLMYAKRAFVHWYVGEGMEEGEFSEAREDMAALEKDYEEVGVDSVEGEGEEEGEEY
UniProt P99024: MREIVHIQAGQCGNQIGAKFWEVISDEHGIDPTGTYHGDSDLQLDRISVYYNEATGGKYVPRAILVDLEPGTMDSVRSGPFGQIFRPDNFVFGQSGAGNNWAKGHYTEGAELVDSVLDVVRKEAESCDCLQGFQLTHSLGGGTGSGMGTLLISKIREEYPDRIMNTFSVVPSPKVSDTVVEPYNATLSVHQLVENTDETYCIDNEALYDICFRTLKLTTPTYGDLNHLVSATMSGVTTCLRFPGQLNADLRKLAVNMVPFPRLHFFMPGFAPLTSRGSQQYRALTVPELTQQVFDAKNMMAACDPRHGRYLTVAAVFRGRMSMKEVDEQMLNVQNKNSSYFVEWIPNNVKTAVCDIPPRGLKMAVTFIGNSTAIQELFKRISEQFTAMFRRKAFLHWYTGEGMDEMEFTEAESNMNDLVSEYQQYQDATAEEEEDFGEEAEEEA
UniProt O88477: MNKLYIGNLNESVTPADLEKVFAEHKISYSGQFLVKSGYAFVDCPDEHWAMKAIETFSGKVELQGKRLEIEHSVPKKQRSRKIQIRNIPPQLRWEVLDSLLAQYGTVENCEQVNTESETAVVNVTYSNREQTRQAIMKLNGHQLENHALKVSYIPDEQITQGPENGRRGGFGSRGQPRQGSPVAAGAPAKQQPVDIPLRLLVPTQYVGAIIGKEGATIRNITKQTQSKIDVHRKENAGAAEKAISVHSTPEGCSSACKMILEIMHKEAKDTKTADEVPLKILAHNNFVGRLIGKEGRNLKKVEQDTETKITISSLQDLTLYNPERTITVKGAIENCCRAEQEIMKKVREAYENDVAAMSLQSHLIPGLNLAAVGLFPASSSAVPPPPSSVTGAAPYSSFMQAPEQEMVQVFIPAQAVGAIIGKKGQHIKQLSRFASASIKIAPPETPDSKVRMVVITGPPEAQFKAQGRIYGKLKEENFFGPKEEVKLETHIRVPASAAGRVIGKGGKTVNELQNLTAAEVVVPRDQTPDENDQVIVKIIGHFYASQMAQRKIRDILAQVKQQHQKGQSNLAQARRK

Read-outs that look alike come from different tables or passages of the source. Results are given in words; binding and its absence hold for the method and conditions named. In cells and extracts the contact can be indirect. A yes stands for co-enrichment or nearness to the bait. Other partners may have been found. Where a sequence is shown, tags or fusion partners need not be part of it.

Assay [1] deals with T1, STAG3-v5 (mouse (endogenous in mESCs)) (UniProt O70576).
T1 sequence: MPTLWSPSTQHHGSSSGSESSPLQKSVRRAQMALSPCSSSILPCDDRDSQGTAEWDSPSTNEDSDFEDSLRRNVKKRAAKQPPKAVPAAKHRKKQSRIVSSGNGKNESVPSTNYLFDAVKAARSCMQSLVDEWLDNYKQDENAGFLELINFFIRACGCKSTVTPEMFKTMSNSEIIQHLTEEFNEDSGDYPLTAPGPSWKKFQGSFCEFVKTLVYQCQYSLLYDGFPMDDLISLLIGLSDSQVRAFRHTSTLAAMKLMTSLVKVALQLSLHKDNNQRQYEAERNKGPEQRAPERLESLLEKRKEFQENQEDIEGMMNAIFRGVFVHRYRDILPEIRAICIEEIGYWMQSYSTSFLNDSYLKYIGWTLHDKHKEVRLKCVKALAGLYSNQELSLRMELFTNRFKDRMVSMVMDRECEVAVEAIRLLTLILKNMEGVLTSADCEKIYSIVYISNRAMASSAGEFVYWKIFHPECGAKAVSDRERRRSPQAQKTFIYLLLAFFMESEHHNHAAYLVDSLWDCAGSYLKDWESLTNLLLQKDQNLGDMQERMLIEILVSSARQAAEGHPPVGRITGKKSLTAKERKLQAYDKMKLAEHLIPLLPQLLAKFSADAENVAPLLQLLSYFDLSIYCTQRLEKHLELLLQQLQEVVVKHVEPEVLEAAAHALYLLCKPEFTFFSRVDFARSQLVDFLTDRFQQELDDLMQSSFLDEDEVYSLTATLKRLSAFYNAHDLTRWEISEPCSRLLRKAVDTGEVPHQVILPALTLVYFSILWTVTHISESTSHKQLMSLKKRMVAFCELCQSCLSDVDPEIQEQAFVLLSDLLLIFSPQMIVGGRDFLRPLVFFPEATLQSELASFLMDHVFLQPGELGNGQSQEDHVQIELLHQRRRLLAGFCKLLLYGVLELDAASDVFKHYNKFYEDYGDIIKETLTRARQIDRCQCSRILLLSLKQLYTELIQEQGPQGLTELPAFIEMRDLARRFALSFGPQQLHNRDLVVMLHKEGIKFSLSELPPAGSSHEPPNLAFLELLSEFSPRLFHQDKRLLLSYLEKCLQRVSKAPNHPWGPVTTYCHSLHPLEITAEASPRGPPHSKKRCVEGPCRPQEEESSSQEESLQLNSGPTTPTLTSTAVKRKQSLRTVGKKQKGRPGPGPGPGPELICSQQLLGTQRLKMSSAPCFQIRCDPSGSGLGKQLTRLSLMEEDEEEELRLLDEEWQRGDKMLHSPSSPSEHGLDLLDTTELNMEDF
As to the kind of experiment: affinity purification with mass spectrometry.

Assay [2] deals with T1, STAG3-v5 (mouse (endogenous in mESCs)). As to the kind of experiment: affinity purification with mass spectrometry. This is another data set of the same source.

Consider ELAVL1 (from UniProt P70372 1-326), for which the binding entry in assay [1] is recorded as “binds”.

Turning to HNRNPD (from UniProt Q60668 1-355), the binding result in assay [1] is “binds”.

IGF2BP2 (from UniProt Q5SF07 1-592): in assay [1], the binding entry is “binds”.

As for IGF2BP3 (from UniProt Q9CPN8 1-579), the binding entry in assay [1] is recorded as “binds”.

For the molecule LSM12 (from UniProt Q9D0R8 1-195), the binding result in assay [1] was “binds”.

For the molecule TUBA1b (from UniProt P05213 1-451), the binding entry in assay [1] is on record as “binds”.

In the case of TUBB5 (from UniProt P99024 1-444), in assay [1], the binding result was “binds”.

“insulin-like growth factor 2 mRNA-binding protein 1 (IGF2BP1) (from UniProt O88477 1-577)”: the binding result in assay [1] is “binds”.

B1: STIL (protein, UniProt Q60988 1-1262)
chain: MNTRFPSSKMVPFHFPPSKLALWNPMPIGECIYLHLSYYRKPKLMVTEKAIRLAYRHAKQNKKNVPCFLLGSLTVDEDEEGVTLTIDRFDPGREIPECLERTPTASLPGDFLIPCRVHIQGLGSRDVIVHNADDFSSALKALQYHVCSKDFLDCGKLLCLRAQITPRESLDGVDFNLQWTAVTLANSFKCVPVKPIPIIPTALARNLSSNLNISQVQGTYKHGYITMDETRKLLLLLQSDPKVSSLPLVGIWLAGIIHVYSPQVWACCLRYMFSSSIQERVFSESGNFIIVLYSLTHKEPEFYECLPCESRTPDLQFQLLTNKETLHLFNNVEPSGKNPIHFELSAESQDAEAEAEVLSKISKTLPVKRSSQKLSPGKIPINKHDTDLEDEDFSPRPIPSPHPVSQKISKVQPSVPELSLVLDNNFTESSNQSNPLEMMTVENPLLIKPSQPELCDAKHSSEATTGEPFRRGPTNQLSQDTALRQSRGKQSSTCKKESLQFRNTNAKPSLSVPSPDVAEKLQAVSAGSMQKEDYPVRPSTLDSRQPSLAPQAQPHNLVFSTHNSTRPMELQVPTPSLPSYYPTNVCSCCQHHGHIQYSTINSWQGNTVGSIQDLRSESLPKHAFFHSSGCPSLCPNAIYSSSSPVSMKQGGMGAYSPHSNGEPSPVAGPSHVDSCVPHPCAMCMHTPNTAPDNGMMGLSPDAYRFVTEQDRQLRLLQAQIQRLLEAQSLDPGSHKTVATVEDTVKAAKQMELVSMEAQSSPGLHMRKSVSIAVSTGASLFWNAAGDDQEPDSQPKQDDTKISSEDMNFSVDINNEATSLPGSASSLKAVDIPSFEESNLAVEEVNQPLPESNSSSEQSKEPGVPVFFPNALLAESVSMCLQTAPTEGASNSTELPQGTKDEPYRPSDNQKIYQDLLGQVNHLLSNASQETEEPPTKAVVTNRECAKTQNTHHARKKRHNSGLVDKDCVLSATIKQLRSLGVKIDSPTKVKKNEQKVDHASVLACISPEAVISGLNYMSFGNVGMSSLSPTGVDLSMEANAIALKYLSENQLSQLSLARSKQNNGDSSVGLLHINSDRSTVGLSLVSPSNMSFATKKYMKRYGLLQSSDNSEDEEEPPSHADSESDHVLNRNPACRPVQCGHEKEPSWNACEIAQCSDCGSADTRTDVPVLRNITNQAVQPRATEHLNEDSAISLRNLKPNPAMNLRTGKAEFTHHPEKENERDIAVFPGTLPSPETLKQMNSMDSVGTFLDVKRLRQLPKLF
As for B1, the binding result in assay [2] is given as “binds”.

B2: POC1A (protein, UniProt Q8JZX3 1-405)
chain: MAAPSQEDPSLERHFKGHRDAVTCVDFSLNTKHLASGSMDSTLMIWHMKPQSRAYRFTGHKDAVTCVNFSPSGHLLASGSRDKTVRIWVPNVKGESTVFRAHTATVRSVHFCSDGQSLVTASDDKTVKVWSTHRQRFLFSLTQHINWVRCAKFSPDGRLIVSASDDKTVKLWDKTSRECIHSYCEHGGFVTYVDFHPSGTCIAAAGMDNTVKVWDARTHRLLQHYQLHSAAVNALSFHPSGNYLITASSDSTLKILDLMEGRLLYTLHGHQGPATTVAFSRTGEYFASGGSDEQVMVWKSNFDIVDYGDMKARRPPPLTSSSGTLPKMDLPVPPGRDRSLESVQGEPQESISMPQTLTSTLEHIVGQLDILTQTVSILEQRLTLTEDRLKQCLENQQLIMQRTPP
Take B2: the binding entry in assay [2] is “binds”.
